Data as given in patent US20240040982, “CEREAL GRAIN WITH THICKENED ALEURONE” (Commonwealth Scientific and Industrial Research Organisation, published 2024).
A weaker result is weaker than the reference pair of the same experiment. Where a protein sequence is shown, tags need not be part of it.

Tested on: T1, ta1-1 I truncated TA1 (Oryza sativa)
T1 sequence (limits assumed): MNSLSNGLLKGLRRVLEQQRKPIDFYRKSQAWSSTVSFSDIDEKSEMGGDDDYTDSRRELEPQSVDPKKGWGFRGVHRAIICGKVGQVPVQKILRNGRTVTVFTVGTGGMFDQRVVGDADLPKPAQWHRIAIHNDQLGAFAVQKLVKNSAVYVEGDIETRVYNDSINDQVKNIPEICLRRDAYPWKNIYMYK
Assay: EMSA
Conditions: 8 ug mutant gives shift similar to 2 ug wild type; purified recombinant protein; protein details: N-terminal 6xHis, expressed in E. coli; label: 3' biotin (biotinylated CTP); single-stranded DNA

ACTCCCTCTCCCTTGCGGATTCGAATGGTAGTACATTCTCTTCGA [45-nt EMSA ssDNA probe]
binding result: binds more weakly
